Article PMC6451745, “Development and dosimetry of ^203Pb/^212Pb-labelled PSMA ligands: bringing “the lead” into PSMA-targeted alpha therapy?” (European Journal of Nuclear Medicine and Molecular Imaging, 2019)

Legend:
[1] = system: patients with castration-resistant metastasized prostate cancer; assay: Dosimetry extrapolated from ^203Pb-CA012 to ^212Pb-CA012
[2] = set-up: method as in PMID 28408529; conditions: projected treatment activity 6–8 MBq; cited from earlier work
[3] = RBE 5 for alpha, 1 for beta and gamma
[4] = projected treatment activity 100 MBq

SMILES	share of alpha radiation in equivalent dose [1, 3] [%]	share of beta radiation in equivalent dose [1, 3] [%]	share of gamma radiation in equivalent dose [1, 3] [%]	Tumour/kidneys dose ratio [1, 4]	Tumour/red marrow dose ratio [1, 4]	Tumour/salivary glands dose ratio [1, 4]	Tissue equivalent dose, Tumour (mean) [2] [SvRBE5]	Tumour/kidneys dose ratio [2]	Tumour/red marrow dose ratio [2]	Tumour/salivary glands dose ratio [2]
NC(=O)CN1CCN(CC(N)=O)CCN(CC(=O)NC[C@H]2CC[C@H](C(=O)N[C@@H](Cc3ccc4ccccc4c3)C(=O)NCCCC[C@H](NC(=O)N[C@@H](CCC(=O)O)C(=O)O)C(=O)O)CC2)CCN(CC(N)=O)CC1.[212Pb+2] [^212Pb-CA012]	96.4	2.2	1.4	2.9	23.3	1.9	–	–	–	–
O=C([O-])CC[C@H](NC(=O)N[C@@H](CCCCNC(=O)[C@H](Cc1ccc2ccccc2c1)NC(=O)C1CCC(CNC(=O)CN2CCN(CC(=O)[O-])CCN(CC(=O)[O-])CCN(CC(=O)[O-])CC2)CC1)C(=O)[O-])C(=O)[O-].[225Ac].[H+].[H+].[H+] (stereo partly shown) [^225Ac-PSMA-617]	–	–	–	–	–	–	34	8.1	113.3	2.5
